Measurements published in PubChem BioAssay AID1439 (NMMLSC, 2008).
In all, about 220,000 compounds went through this assay and about 770 (0.35%) were called active. This list was built around the results that the source calls inconclusive (neither active nor inactive); the mix of calls is not that of the screen. Rule as the data show it: active = binding response below about 49% or above about 150%; inconclusive = no clear call, values can overlap the other calls; inactive = in between.

Amino acid sequences for entries named in this document (tags omitted).
UniProt P09471, whole entry, looked up: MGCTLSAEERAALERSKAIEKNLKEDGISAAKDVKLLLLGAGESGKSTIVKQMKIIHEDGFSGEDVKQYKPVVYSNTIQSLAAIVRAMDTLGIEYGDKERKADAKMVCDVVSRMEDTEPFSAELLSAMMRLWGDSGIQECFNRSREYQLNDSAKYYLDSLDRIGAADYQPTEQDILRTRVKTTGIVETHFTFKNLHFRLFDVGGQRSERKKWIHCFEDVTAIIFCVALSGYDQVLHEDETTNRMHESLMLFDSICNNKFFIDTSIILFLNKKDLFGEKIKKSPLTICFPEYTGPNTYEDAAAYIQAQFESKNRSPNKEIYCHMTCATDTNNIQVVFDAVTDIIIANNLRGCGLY

Molecular target: Guanine nucleotide-binding protein G(o) subunit alpha (Homo sapiens) (UniProt P09471)
Assay: RGS7-Galphao binding modulators, primary screen, biochemical, multiplexed bead flow cytometry (AID 1439);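 also: fluorescent Galphao held in activated GDP-AlF4 state binding bead-coupled RGS7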
Settings: at 10 µM, actives lie on both sides

SMILES | binding response (% of control)
Cc1cccc2c(=O)c(Br)c(C)n(Cc3ccccc3)c12 | inconclusive: 72.5%
O=S(=O)(NC1=NCCCCC1)c1ccc(F)cc1 | inconclusive: 270%
CN(C)S(=O)(=O)Oc1ccc(C(=O)Nc2cccc(C(F)(F)F)c2)cc1 | inconclusive: 109%
C=CCn1c(SCC(=O)Nc2ccc(C(=O)O)cc2)nnc1-c1cccnc1 | inconclusive: 98.5%
O=C(O)C1CCCCC1C(=O)Nc1nc(-c2ccc(Cl)s2)cs1 (stereo unspecified) | inconclusive: 90.7%
COc1ccc(-c2c(C)[nH]n3c(=O)c(Cc4ccccc4)c(C)nc23)cc1 | inactive: 101%
O=C(Cn1nc(-c2ccccc2)ccc1=O)Nc1ccc(NC(=O)c2ccccn2)cc1 | inconclusive: 90.8%
CC1CCN(c2c(NCC3CCC(C(=O)NCCc4ccc(Cl)cc4)CC3)c(=O)c2=O)CC1 (stereo unspecified) | inconclusive: 115%
CCCCC1=CC2=C(c3ccco3)C(=O)C(C)(OC(=O)c3ccc(OC)cc3)C(=O)C2=CN1CC1CC1 (stereo unspecified) | inconclusive: 2.37%
CN1CCN(c2nc(NCc3ccco3)nc(N)c2[N+](=O)[O-])CC1 | inconclusive: 120%
O=C(Nc1ccc(O)c2c(=O)cc(-c3cccc(Cl)c3)oc12)c1ccc(F)cc1 | inconclusive: 102%
NNC(=O)c1ccc(Cn2cc(Cl)cn2)o1 | inconclusive: 195%
CC1=NN(c2ccc(C(=O)O)cc2)C(=O)/C1=C\c1ccc(OC(=O)c2cccs2)cc1 | inconclusive: 58.7%
O=C(CSc1nncn1-c1ccccc1)NC1CCCc2ccccc21 (stereo unspecified) | inactive: 93.5%
Cc1c(/C=N/NC(=O)c2ccc(Br)o2)cnn1C | inconclusive: 427%
C/C=C/c1ccc(OCC(=O)Nc2cc(OC)c(OC)c(OC)c2)c(OC)c1 | inconclusive: 109%
O=c1c2ccccc2ncn1-c1ccccc1C(F)(F)F | inactive: 91.5%
CN1C(=O)/C(=N\OC(=O)c2ccccc2Cl)c2ccccc21 | inactive: 107%
COc1ccc2cc(/C(C)=N/NC(=S)Nc3cc(S(=O)(=O)N4CCOCC4)ccc3N3CCOCC3)ccc2c1 | inconclusive: 114%

SMILES | binding response (% of control)
CCOc1ccc(/C=N/OCC(=O)NCc2ccco2)cc1 | inconclusive: 101%
CCC(C)c1ccccc1NC(=O)CN1CCN(C/C=C/c2ccccc2)CC1 (stereo unspecified) | inactive: 104%
O=C(N/N=C/c1cccc([N+](=O)[O-])c1)c1c[nH]c2ccccc12 | inconclusive: 87.6%
COc1ccc(C(=O)/C=C/c2ccc(N(C)C)cc2)c(OC)c1 | inconclusive: 58%
COc1ccc(C2=CC3=C(Br)C(=O)C(C)(OC(=O)c4ccco4)C(=O)C3=CO2)cc1 (stereo unspecified) | inconclusive: 34%
O=C(CSC1=NCCN1)NC(c1ccccc1)c1ccccc1 | inconclusive: 93.5%
CCN1N=C(C)C=C(c2ccccc2)n2c1nc1ccccc12 | inconclusive: 107%
Cc1ccc(C2N(c3cccc(Cl)c3)C(=O)N3CCCN23)cc1 (stereo unspecified) | inconclusive: 111%
CC1(C)CSC(=NCc2ccccc2)N1C(=O)c1cccc([N+](=O)[O-])c1 | inactive: 101%
Nc1nc(SCC(=O)N2CCOCC2)n[nH]1 | active: 189% [activator]
CC(C)(C)C(=O)/C=c1\s/c(=C\c2ccc(-c3ccc([N+](=O)[O-])cc3)o2)c(=O)n1CC(=O)NC(N)=O | inactive: 105%
COc1cc2cc(Oc3ccc4ccc(=O)oc4c3)c(=O)oc2cc1OC(=O)C=C(C)C | inconclusive: 80.5%
COc1ccccc1C(=O)Nc1nnc(-c2ccc(Cl)cc2)o1 | inconclusive: 110%
CC(C)CCC1(CCNC(C)c2cccs2)CCOC(C)(C)C1 (stereo unspecified) | inconclusive: 99.6%
c1ccc(-c2c[n+]3c(n2-c2ccccc2)SCC3)cc1 | inconclusive: 129%
CCOC(=O)NC(=O)CSc1nnnn1-c1ccccc1 | inactive: 135%
O=C(CN1CCCCC1)Nc1c2c(nc3ccccc13)N(c1ccccc1)CC2 | inconclusive: 105%
Cc1ccc(SC[C@H](c2ccccc2)N2CCN(C)CCC2=O)cc1 | inconclusive: 126%
CC(=O)C1=C(O)C(=O)N(c2ccc(C)cc2)C1c1ccc([N+](=O)[O-])cc1 (stereo unspecified) | inconclusive: 95.2%

Three entries from above, arranged by heavy-atom count, high to low.
SMILES | binding response (% of control)
O=C(CN1CCCCC1)Nc1c2c(nc3ccccc13)N(c1ccccc1)CC2 | inconclusive: 105%
CC1(C)CSC(=NCc2ccccc2)N1C(=O)c1cccc([N+](=O)[O-])c1 | inactive: 101%
O=C(CSC1=NCCN1)NC(c1ccccc1)c1ccccc1 | inconclusive: 93.5%

Going on with the list.

SMILES | binding response (% of control)
OCCC1CN(Cc2cccn2-c2nccs2)CCN1Cc1ccccc1 (stereo unspecified) | inconclusive: 111%
O=C(O)C1(c2ccccc2)CCN(S(=O)(=O)c2ccc(Cl)s2)CC1 | inconclusive: 99.5%
COCc1cc(CN2CCCC2)c(O)c2ncccc12 | inactive: 114%
CCO[C@H]1OC(C(=O)NC2CC2)=C[C@@H](c2c[nH]c3ccccc23)[C@@H]1CCCO | inconclusive: 101%
C=CCOc1c(Cl)cc(CNc2nccs2)cc1OC | inactive: 104%
Cc1[nH]n(-c2ccccc2)c(=O)c1/C=C1\C=NN=C1c1ccccc1 | inconclusive: -2.06%
O=C(NCCc1ccccc1)c1cc(=O)[nH]c2ccccc12 | inconclusive: 90%
S=C(NCCN1CCCCC1)Nc1ccc(Br)cc1 | inconclusive: 92%
COc1cccc(NC(=S)N(CCCN2CCC(C)CC2)Cc2cccs2)c1 | inconclusive: 94.8%
CC(=O)N(NC(N)=O)C(C)CC(=O)C1C(C)C=CCC1(C)C (stereo unspecified) | inconclusive: 102%
O=C(O)CC(NC(=O)c1cccc([N+](=O)[O-])c1)c1ccc2c(c1)OCO2 (stereo unspecified) | inactive: 97.5%
O=C(COc1ccccc1Cc1ccccc1)NCCCN1CCOCC1 | inconclusive: 113%
Nc1nc(-c2ccc3c(c2)CCC(=O)N3)cs1 | inconclusive: 93.2%
CC(=O)C(Sc1nnnn1-c1ccccc1)C(C)=O | inconclusive: 133%
O=C(CCNC(=O)c1ccccc1Cl)OCC(=O)c1ccccc1 | inconclusive: 87.2%
COC(=O)[C@@H]1C[C@@]2(O)[C@@H](O)[C@@H](O)[C@@H](O)C[C@H]2N1Cc1ccc(C)s1 | inconclusive: 92.6%
S=C(Nc1ccc(Oc2ccccc2)cc1)N(CCCN1CCOCC1)Cc1ccccn1 | inconclusive: 108%
COCCn1c(C)cc(/C=C2/SC(=O)N(C(C)C(=O)OC)C2=O)c1C (stereo unspecified) | inconclusive: 943%
